The test concerns the target SKP2ΔF (UniProt Q13309). Kind of test: co-IP; 293 T cells transfected with the indicated plasmids, whole-cell lysate (weak RIPA lysis buffer), immunoprecipitation and immunoblotting. For orientation: In western blotting, separated proteins are transferred to a membrane and probed.

Chains of the proteins cited; added tags and fusions are not shown. Lines headed by an entry give the natural chain unless they say otherwise; changes in a name come on top.
UniProt Q13309: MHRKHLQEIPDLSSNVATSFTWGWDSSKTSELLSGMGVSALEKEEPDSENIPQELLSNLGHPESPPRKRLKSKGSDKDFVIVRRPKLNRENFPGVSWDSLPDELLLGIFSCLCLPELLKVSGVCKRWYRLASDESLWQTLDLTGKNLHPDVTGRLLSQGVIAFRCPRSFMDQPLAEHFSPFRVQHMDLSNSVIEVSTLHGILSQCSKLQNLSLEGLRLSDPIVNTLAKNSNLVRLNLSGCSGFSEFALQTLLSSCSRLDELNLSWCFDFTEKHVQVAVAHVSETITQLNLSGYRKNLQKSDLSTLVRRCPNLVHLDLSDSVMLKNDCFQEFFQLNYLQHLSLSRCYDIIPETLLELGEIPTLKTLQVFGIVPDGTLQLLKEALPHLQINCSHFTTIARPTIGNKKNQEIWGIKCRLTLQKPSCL

These are yes or no findings as the source states them, for the method shown. Binding seen in cells or lysates may run through a third protein.

B1: Programmed cell death protein 4 (PDCD4), endogenous (protein, UniProt Q53EL6 1-469)
chain: MDVENEQILNVNPADPDNLSDSLFSGDEENAGTEEIKNEINGNWISASSINEARINAKAKRRLRKNSSRDSGRGDSVSDSGSDALRSGLTVPTSPKGRLLDRRSRSGKGRGLPKKGGAGGKGVWGTPGQVYDVEEVDVKDPNYDDDQENCVYETVVLPLDERAFEKTLTPIIQEYFEHGDTNEVAEMLRDLNLGEMKSGVPVLAVSLALEGKASHREMTSKLLSDLCGTVMSTTDVEKSFDKLLKDLPELALDTPRAPQLVGQFIARAVGDGILCNTYIDSYKGTVDCVQARAALDKATVLLSMSKGGKRKDSVWGSGGGQQSVNHLVKEIDMLLKEYLLSGDISEAEHCLKELEVPHFHHELVYEAIIMVLESTGESTFKMILDLLKSLWKSSTITVDQMKRGYERIYNEIPDINLDVPHSYSVLERFVEECFQAGIISKQLRDLCPSRGRKRFVSEGDGGRLKPESY
Take B1: the binding result is reported as “no binding”.

Values taken from publication PMC6375223.
